# Assay results published in the supplement of paper PMC8728848.
# Some of the results follow.
# Columns and labels:
# Experiment in all cases: glycan array binding signal (z-score within array); higher = stronger binding
# Conditions in all cases: glycan notation: IUPAC condensed, linker removed
# Man(b1-4)GlcNAc = system: Man(b1-4)GlcNAc
# Method in brief: (§1)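 Negative Z-scores can be read as non-binding. The Z-score is calculated within each array and then averaged across arrays of one protein sequence at different concentrations or buffers and across linkers. Arrays, 3228 in all, were curated from the Consortium for Functional Glycomics database and kept only where the protein sequence was available.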
# [1] = system: Neu5Ac(a2-3)Gal(b1-3)GalNAc(b1-3)Gal(a1-4)Gal(b1-4)Glc
# Method in brief: as §1
# [2] = system: Neu5Ac(a2-3)Gal(b1-3)GalNAc(b1-4)[Neu5Ac(a2-3)]Gal(b1-4)Glc
# Method in brief: as §1
# [3] = system: Neu5Ac(a2-3)Gal(b1-3)GalNAc(b1-4)[Neu5Ac(a2-8)Neu5Ac(a2-3)]Gal(b1-4)Glc
# Method in brief: as §1
# [4] = system: Neu5Ac(a2-3)Gal(b1-3)GalNAc6S
# Method in brief: as §1
# [5] = system: Neu5Ac(a2-3)Gal(b1-3)GalNAc
# Method in brief: as §1
# [6] = system: Neu5Ac(a2-3)Gal(b1-3)GlcNAc(b1-2)Man(a1-3)[GlcNAc(b1-4)][Neu5Ac(a2-3)Gal(b1-3)GlcNAc(b1-2)Man(a1-6)]Man(b1-4)GlcNAc(b1-4)GlcNAc
# Method in brief: as §1
# [7] = system: Neu5Ac(a2-3)Gal(b1-3)GlcNAc(b1-3)Gal(b1-3)GlcNAc
# Method in brief: as §1
# [8] = system: Neu5Ac(a2-3)Gal(b1-3)GlcNAc(b1-3)Gal(b1-4)GlcNAc
# Method in brief: as §1
# [9] = system: Neu5Ac(a2-3)Gal(b1-3)GlcNAc(b1-3)GalNAc
# Method in brief: as §1
# [10] = system: Neu5Ac(a2-3)Gal(b1-3)GlcNAc(b1-6)GalNAc
# Method in brief: as §1
# [11] = system: Neu5Ac(a2-3)Gal(b1-3)GlcNAc6S
# Method in brief: as §1
# [12] = system: Neu5Ac(a2-3)Gal(b1-3)GlcNAc
# Method in brief: as §1
# [13] = system: Neu5Ac(a2-3)Gal(b1-3)[Fuc(a1-4)]GlcNAc(b1-3)Gal(b1-3)[Fuc(a1-4)]GlcNAc
# Method in brief: as §1
# [14] = system: Neu5Ac(a2-3)Gal(b1-3)[Fuc(a1-4)]GlcNAc(b1-3)Gal(b1-4)[Fuc(a1-3)]GlcNAc
# Method in brief: as §1
# [15] = system: Neu5Ac(a2-3)Gal(b1-3)[Fuc(a1-4)]GlcNAc
# Method in brief: as §1
# [16] = system: Neu5Ac(a2-3)Gal(b1-3)[Neu5Ac(a2-3)Gal(b1-4)]GlcNAc
# Method in brief: as §1
# [17] = system: Neu5Ac(a2-3)Gal(b1-3)[Neu5Ac(a2-6)]GalNAc
# Method in brief: as §1
# [18] = system: Neu5Ac(a2-3)Gal(b1-3)[Neu5Ac(a2-6)]GlcNAc(b1-3)[Fuc(a1-3)[Gal(b1-4)]GlcNAc(b1-6)]Gal(b1-4)Glc
# Method in brief: as §1
# [19] = system: Neu5Ac(a2-3)Gal(b1-4)GlcNAc(b1-2)Man(a1-3)[GlcNAc(b1-2)Man(b1-4)GlcNAc(b1-2)Man(a1-6)]Man(b1-4)GlcNAc(b1-4)GlcNAc
# Method in brief: as §1
# [20] = system: Neu5Ac(a2-3)Gal(b1-4)GlcNAc(b1-2)Man(a1-3)[Neu5Ac(a2-3)Gal(b1-4)GlcNAc(b1-2)Man(a1-6)]Man(b1-4)GlcNAc(b1-4)[Fuc(a1-6)]GlcNAc
# Method in brief: as §1
# [21] = system: Neu5Ac(a2-3)Gal(b1-4)GlcNAc(b1-2)Man(a1-3)[Neu5Ac(a2-6)Gal(b1-4)GlcNAc(b1-2)Man(a1-6)]Man(b1-4)GlcNAc(b1-4)GlcNAc
# Method in brief: as §1
# [22] = system: Neu5Ac(a2-3)Gal(b1-4)GlcNAc(b1-2)Man
# Method in brief: as §1
# [23] = system: Neu5Ac(a2-3)Gal(b1-4)GlcNAc(b1-2)[Neu5Ac(a2-3)Gal(b1-4)GlcNAc(b1-6)]Man(a1-6)[Neu5Ac(a2-3)Gal(b1-4)GlcNAc(b1-2)Man(a1-3)]Man(b1-4)GlcNAc(b1-4)GlcNAc
# Method in brief: as §1
# [24] = system: Neu5Ac(a2-3)Gal(b1-4)GlcNAc(b1-3)Gal(b1-3)GlcNAc
# Method in brief: as §1
# [25] = system: Neu5Ac(a2-3)Gal(b1-4)GlcNAc(b1-3)Gal(b1-4)GlcNAc(b1-3)Gal(b1-4)GlcNAc
# Method in brief: as §1
# [26] = system: Neu5Ac(a2-3)Gal(b1-4)GlcNAc(b1-3)Gal(b1-4)GlcNAc
# Method in brief: as §1
# [27] = system: Neu5Ac(a2-3)Gal(b1-4)GlcNAc(b1-3)Gal(b1-4)[Fuc(a1-3)]GlcNAc
# Method in brief: as §1
# [28] = system: Neu5Ac(a2-3)Gal(b1-4)GlcNAc(b1-3)GalNAc
# Method in brief: as §1
# [29] = system: Neu5Ac(a2-3)Gal(b1-4)GlcNAc(b1-3)Gal
# Method in brief: as §1
# [30] = system: Neu5Ac(a2-3)Gal(b1-4)GlcNAc(b1-3)[Neu5Ac(a2-3)Gal(b1-4)GlcNAc(b1-6)]GalNAc
# Method in brief: as §1
# [31] = system: Neu5Ac(a2-3)Gal(b1-4)GlcNAc(b1-6)GalNAc
# Method in brief: as §1
# [32] = system: Neu5Ac(a2-3)Gal(b1-4)GlcNAc(b1-6)[Gal(b1-3)]GalNAc
# Method in brief: as §1
# [33] = system: Neu5Ac(a2-3)Gal(b1-4)GlcNAc(b1-6)[Neu5Ac(a2-3)Gal(b1-3)]GalNAc
# Method in brief: as §1
# [34] = system: Neu5Ac(a2-3)Gal(b1-4)GlcNAc6S
# Method in brief: as §1
# [35] = system: Neu5Ac(a2-3)Gal(b1-4)GlcNAc
# Method in brief: as §1
# Neu5Ac(a2-3)Gal(b1-4)Glc = system: Neu5Ac(a2-3)Gal(b1-4)Glc
# Method in brief: as §1
# [36] = system: Neu5Ac(a2-3)Gal(b1-4)[Fuc(a1-3)]GlcNAc(b1-3)Gal(b1-4)GlcNAc
# Method in brief: as §1
# [37] = system: Neu5Ac(a2-3)Gal(b1-4)[Fuc(a1-3)]GlcNAc(b1-3)Gal(b1-4)[Fuc(a1-3)]GlcNAc(b1-3)Gal(b1-4)[Fuc(a1-3)]GlcNAc
# Method in brief: as §1
# [38] = system: Neu5Ac(a2-3)Gal(b1-4)[Fuc(a1-3)]GlcNAc(b1-3)GalNAc
# Method in brief: as §1
# [39] = system: Neu5Ac(a2-3)Gal(b1-4)[Fuc(a1-3)]GlcNAc(b1-3)Gal
# Method in brief: as §1
# [40] = system: Neu5Ac(a2-3)Gal(b1-4)[Fuc(a1-3)]GlcNAc(b1-6)[Gal(b1-3)]GalNAc
# Method in brief: as §1
# [41] = system: Neu5Ac(a2-3)Gal(b1-4)[Fuc(a1-3)]GlcNAc6S
# Method in brief: as §1
# [42] = system: Neu5Ac(a2-3)Gal(b1-4)[Fuc(a1-3)]GlcNAc
# Method in brief: as §1
# [43] = system: Neu5Ac(a2-3)Gal6S(b1-4)GlcNAc
# Method in brief: as §1
# [44] = system: Neu5Ac(a2-3)Gal6S(b1-4)[Fuc(a1-3)]GlcNAc
# Method in brief: as §1
# [45] = system: Neu5Ac(a2-3)GalNAc(b1-4)GlcNAc
# Method in brief: as §1
# Neu5Ac(a2-3)GalNAc = system: Neu5Ac(a2-3)GalNAc
# Method in brief: as §1
# Neu5Ac(a2-3)Gal = system: Neu5Ac(a2-3)Gal
# Method in brief: as §1
# [46] = system: Neu5Ac(a2-3)[GalNAc(b1-4)]Gal(b1-4)GlcNAc(b1-3)GalNAc
# Method in brief: as §1
# [47] = system: Neu5Ac(a2-3)[GalNAc(b1-4)]Gal(b1-4)GlcNAc
# Method in brief: as §1
# [48] = system: Neu5Ac(a2-3)[GalNAc(b1-4)]Gal(b1-4)Glc
# Method in brief: as §1
substance,measurement,setting,value
"Wza (Escherichia coli), P0A930",glycan array binding signal (z-score),Man(b1-4)GlcNAc,-0.686
same,glycan array binding signal (z-score),[1],1.07
same,glycan array binding signal (z-score),[2],-0.692
same,glycan array binding signal (z-score),[3],0.61
same,glycan array binding signal (z-score),[4],-0.69
same,glycan array binding signal (z-score),[5],0.257
same,glycan array binding signal (z-score),[6],-1.23
same,glycan array binding signal (z-score),[7],0.621
same,glycan array binding signal (z-score),[8],-0.033
same,glycan array binding signal (z-score),[9],-0.192
same,glycan array binding signal (z-score),[10],1.38
same,glycan array binding signal (z-score),[11],-1.5
same,glycan array binding signal (z-score),[12],-0.762
same,glycan array binding signal (z-score),[13],-0.85
same,glycan array binding signal (z-score),[14],1.94
same,glycan array binding signal (z-score),[15],0.702
same,glycan array binding signal (z-score),[16],0.434
same,glycan array binding signal (z-score),[17],-0.38
same,glycan array binding signal (z-score),[18],0.175
same,glycan array binding signal (z-score),[19],-0.441
same,glycan array binding signal (z-score),[20],0.091
same,glycan array binding signal (z-score),[21],-1.27
same,glycan array binding signal (z-score),[22],0.842
same,glycan array binding signal (z-score),[23],-0.47
same,glycan array binding signal (z-score),[24],-0.926
same,glycan array binding signal (z-score),[25],-0.493
same,glycan array binding signal (z-score),[26],-1.45
same,glycan array binding signal (z-score),[27],0.953
same,glycan array binding signal (z-score),[28],2.43
same,glycan array binding signal (z-score),[29],2.81
same,glycan array binding signal (z-score),[30],2.11
same,glycan array binding signal (z-score),[31],-0.404
same,glycan array binding signal (z-score),[32],0.334
same,glycan array binding signal (z-score),[33],1.46
same,glycan array binding signal (z-score),[34],0.428
same,glycan array binding signal (z-score),[35],-1.27
same,glycan array binding signal (z-score),Neu5Ac(a2-3)Gal(b1-4)Glc,-0.735
same,glycan array binding signal (z-score),[36],0.406
same,glycan array binding signal (z-score),[37],0.171
same,glycan array binding signal (z-score),[38],1.12
same,glycan array binding signal (z-score),[39],-0.736
same,glycan array binding signal (z-score),[40],1.6
same,glycan array binding signal (z-score),[41],-0.433
same,glycan array binding signal (z-score),[42],-0.446
same,glycan array binding signal (z-score),[43],-0.975
same,glycan array binding signal (z-score),[44],-0.127
same,glycan array binding signal (z-score),[45],-0.131
same,glycan array binding signal (z-score),Neu5Ac(a2-3)GalNAc,-0.035
same,glycan array binding signal (z-score),Neu5Ac(a2-3)Gal,-0.725
same,glycan array binding signal (z-score),[46],-0.181
same,glycan array binding signal (z-score),[47],0.075
same,glycan array binding signal (z-score),[48],-1.26

# A run of entries taken from the entries so far, as a working copy:
substance,measurement,setting,value
"Wza (Escherichia coli), P0A930",glycan array binding signal (z-score),[22],0.842
same,glycan array binding signal (z-score),[23],-0.47
